# PubChem BioAssay AID540276 (National Center for Advancing Translational Sciences (NCATS), 2011)
# Out of some 300,000 compounds screened, about 5,400 (1.8%) were called active. Inconclusive means that the source gave no clear call. Such entries were picked first, then a sample of the others. Calls come from the whole dose curve; tested in HEK293 cells. Potencies of inconclusive entries are doubtful fits and often do not repeat.
# Assay: qHTS for inhibitors of binding or entry into cells for Marburg Virus
# Conditions: Marburg virus pseudotyped entry inhibition, cell reporter; series mostly up to 37.8 µM
# Potency is the fitted concentration of half-maximal effect.
row,Structure (SMILES),Potency
1,CCSc1nnc(-c2ccc(C)cc2)c2ccccc12,"inconclusive: 35.5 µM [inhibitor, single point]"
2,Cc1ccc(S(=O)(=O)N2CCCCC2)cc1NC(=O)CCc1nc2ccccc2c(=O)[nH]1,"inconclusive: 25.1 µM [inhibitor, single point]"
3,CCOC(=O)NCc1ccc(Cl)c(Cl)c1,"inconclusive: 0.082 µM [inhibitor, full curve, poor fit]"
4,O=C(NN1C(=O)C2C3CCC(O3)C2C1=O)c1ccc(Br)o1 (centres undefined),inactive
5,COc1ccc2c(c1)c(=O)oc1c(C)c(OCC(=O)N3CCc4ccccc4C3)ccc12,"inconclusive: 1 µM [activator, partial curve, poor fit]"
6,CC(Oc1ccc(Br)cc1)C(=O)NC1CCN(Cc2ccccc2)CC1 (centres undefined),active: 12.6 µM
7,CCOc1ccc(-n2c(-c3ccc(OC)cc3)c[n+]3c2CCCCC3)cc1,"inconclusive: 11.2 µM [inhibitor, partial curve, poor fit]"
8,CC(C)CNC(=O)c1ccc(NC(=O)c2cccs2)cc1,inactive
9,CC(c1ccco1)N(C(=O)Nc1ccc(Cl)cc1)c1ccccn1 (centres undefined),inactive
10,CC(=O)Nc1ccc(S(=O)(=O)NC(CC(=O)N(C)Cc2ccccc2)C(C)C)cc1 (centres undefined),"inconclusive: 1.58 µM [activator, partial curve, poor fit]"
11,CC(NC(=O)CCc1nnc(-c2ccc(-c3ccccc3)cc2)o1)c1nccs1 (centres undefined),"inconclusive: 10 µM [inhibitor, partial curve, poor fit]"
12,Cc1cc(N2CCN(C)CC2)nc2ccc(NC(=S)N3CCN(c4ccc(Cl)cc4)CC3)cc12,inactive
13,Cc1ccc(OCC(=O)Nc2cccc(-c3nnc(-c4ccccc4)o3)c2)cc1,"inconclusive: 22.4 µM [inhibitor, single point]"
14,COc1ccc(C(=O)Nc2cccc(C(=O)N3CCCC3)c2)cc1,inactive
15,O=C(Nc1ccc(F)c([N+](=O)[O-])c1)c1ccc2c(c1)OCCO2,"inconclusive: 35.5 µM [inhibitor, single point]"
16,CCOC(=O)N1CCN(C(=O)c2ccc(Cn3c(=S)[nH]c4cc5c(cc4c3=O)OCO5)cc2)CC1,"inconclusive: 18.3 µM [inhibitor, single point]"
17,Cc1sc2nc(C3CC3)nc(SCC(=O)N3CCc4ccccc4C3)c2c1C,"inconclusive: 8.91 µM [inhibitor, partial curve, poor fit]"
18,COc1ccc(C)cc1NC(=O)c1ccc2c(Cl)c3c(nc2c1)CCC3,inactive
19,COc1ccc(-c2nc(CNS(=O)(=O)c3ccc(C)cc3)cs2)cc1,"inconclusive: 12.6 µM [activator, single point]"

# Rewritten with tabs: 2 of the compounds above.
row	Structure (SMILES)	Potency
12	Cc1cc(N2CCN(C)CC2)nc2ccc(NC(=S)N3CCN(c4ccc(Cl)cc4)CC3)cc12	inactive
13	Cc1ccc(OCC(=O)Nc2cccc(-c3nnc(-c4ccccc4)o3)c2)cc1	inconclusive: 22.4 µM [inhibitor, single point]
